Laboratory results from the supplement of paper PMC3334620.
Whole data set: some 33,000 sequences, median “E-score (-0.5 to 0.5)” near -8e-05, cut for the highest 2% near 0.23. This is one part of the list.

target: T1, Nrg2 (UniProt P38082); experiment: PBM E-score (8-mer binding enrichment) (E-score (-0.5 to 0.5)); higher = stronger / more preferred TF binding; settings: protein concentration: 100 nM; construct: GST-full length
T1 sequence: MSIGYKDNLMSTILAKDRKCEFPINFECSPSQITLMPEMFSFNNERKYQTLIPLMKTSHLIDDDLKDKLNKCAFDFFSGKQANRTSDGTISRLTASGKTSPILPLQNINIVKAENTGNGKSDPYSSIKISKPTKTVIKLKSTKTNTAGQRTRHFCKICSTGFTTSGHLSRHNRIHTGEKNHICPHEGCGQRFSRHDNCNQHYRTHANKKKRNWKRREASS
Description: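 Universal 'all 10-mer' protein binding microarrays (Agilent AMADID 015681) probed with GST-tagged S. cerevisiae TFs (full-length or DBD) made by in vitro transcription/translation (PURExpress), about 100-200 nM. Bound TF was detected with fluorescent anti-GST. Each ungapped 8-mer (which stands for itself and its reverse complement) is scored by the PBM enrichment score (E-score), a modified Wilcoxon-Mann-Whitney statistic from -0.5 to +0.5, computed with the Universal PBM Analysis Suite. Scale: above 0.35 generally sequence-specific binding.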

Row | Sequence | PBM E-score
1 | AAAGCCAT | 0.0845
2 | ATCTCAGC | -0.00473
3 | AACATCAG | 0.083
4 | CACAGGGC | 0.179
5 | CACGGCAA | 0.0887
6 | CGTGCCCA | -0.124
7 | TACGGAAA | -0.0442
8 | ACGACACT | -0.0895
9 | AGCCCATC | -0.0428
10 | ACAGTCGC | -0.211
11 | AGGCTCGA | -0.0105
12 | GGGCAGCA | -0.159
13 | CCGACCAA | 0.114
14 | CCACTCTC | -0.0679
15 | GTTAATAA | 0.128
16 | CTGTCGAC | -0.0435
17 | GCAAGACA | -0.0471
18 | TGGCCCAA | 0.106
19 | CCACGGCG | -0.0563
20 | CCGGTGGA | -0.0862
21 | AGTGATTG | 0.131
22 | ACGAGTGG | -0.11
23 | ACGTCGTA | -0.229
24 | ATTCTAGA | -0.141
25 | AAGGTAGG | 0.00624

Row | Sequence | PBM E-score
26 | TGGTGAAA | -0.0676
27 | CAGGTCAA | 0.0245
28 | GGACGCCC | -0.241
29 | AACGGTCT | -0.127
30 | AAACACTG | 0.0488
31 | CGATCATA | 0.111
32 | GAGGAAAA | -0.0374
33 | CCAGGTCG | -0.0366
34 | TAAAACCA | -0.0629
35 | GCATGCAA | 0.161
36 | ACGCGCTA | 0.0075
37 | ATCTGCGC | 0.0656
38 | CAGGCAAG | -0.0417
39 | CTTCAGTA | 0.0263
40 | CGCCGCCC | 0.0213
41 | CTGCAGCA | 0.15
42 | CATGGATC | -0.00475
43 | AGTATGCC | 0.0279
44 | CTAGCTCA | 0.109
45 | AGGAGCAA | -0.119
46 | CTGGTCGA | -0.255
47 | AATTCGAA | 0.13
48 | GATAGTTA | 0.0383
49 | ACGGTTTC | 0.0284
50 | GCACATAC | -0.219

Already shown: entries from further up.
Row | Sequence | PBM E-score
36 | ACGCGCTA | 0.0075
37 | ATCTGCGC | 0.0656

Carrying on:

Row | Sequence | PBM E-score
51 | ACGTCTCA | 0.144
52 | CACGTGAG | -0.0345
53 | CCGCAAAG | 0.117
54 | GCCCGATA | -0.175
55 | CGTAGTAA | 0.0543
56 | ACAGACGA | 0.104
57 | AATGCGAT | 0.102
58 | AATCCAGG | 0.21
59 | TCCGAGCA | 0.0777
60 | GAAGGCAA | 0.0388
61 | AAGATATG | 0.158
62 | ACCTAGCA | 0.103
63 | CCAAAGGC | -0.266
64 | GCTATGAC | -0.0998
65 | AGCCAATC | -0.141
66 | ACGTCAGC | 0.129
67 | CCGTCACG | -0.0676
68 | GAGTGGAA | -0.181
69 | AGGGCCAA | -0.219
70 | ACCCGCAC | 0.141
71 | TGATTGCA | 0.156
72 | AGGACTCG | -0.219
73 | GACAAATA | 0.21
74 | CAGGGATC | 0.238
75 | AAATCCCG | 0.0585

Row | Sequence | PBM E-score
76 | AGGATTGC | -0.172
77 | CAGACGGG | -0.0638
78 | ATGATATC | 0.0898
79 | CGCCGCTC | 0.0612
80 | CCCCACGC | -0.127
81 | ATGAGCCA | -0.0105
82 | GGATTAAC | -0.114
83 | CCCGCCTA | 0.0142
84 | AATAAGAC | -0.123
85 | CGTCTAGC | -0.11
86 | AAGCCCGA | -0.122
87 | ATCGACCA | -0.121
88 | CGAGAATC | 0.0501
89 | ACACAATC | -0.0733
90 | TGTCAGAA | -0.17
91 | ATGCAACC | 0.117
92 | ACGTTGAA | 0.0955
93 | GCTACAAA | 0.119
94 | CATGCACG | -0.0976
95 | AAGGATGA | -0.0508
96 | CACTATTC | 0.058
97 | AAGAGATG | 0.0143
98 | CTGGACCA | -0.0552
99 | AAGTTCGG | 0.0102
100 | ACACTTGG | 0.0484

Row | Sequence | PBM E-score
101 | GGTGCCAA | -0.0376
102 | ACTTCGAG | 0.117
103 | ATCGGCTC | -0.0282
104 | AGAATTCC | -0.0647
105 | AAACATCA | 0.108
106 | AGGTAGGG | -0.004
107 | AGACGTTA | -0.125
108 | GACCTTGA | 0.099
109 | GAGAATTA | 0.0707
110 | AGAATCCA | 0.0493
111 | ACCTCCGG | 0.0492
112 | CGACTCGC | -0.0213
113 | GATTAGTA | 0.111
114 | AAGATATT | 0.126
115 | GTATGTTA | -0.0277
116 | GATTAATA | 0.29
117 | TAAAACAA | -0.0382
118 | GGGGAATA | -0.00627
119 | ATAACGAC | 0.102
120 | CCAACGAC | -0.211
121 | ACCAGACC | 0.0496
122 | GTCTCAGA | -0.0893
123 | CGATAAAC | -0.0733
124 | GTACCGTA | -0.0593
125 | ACTGACCT | 0.0173

Reprinted at random: 7 records from the list.
Row | Sequence | PBM E-score
110 | AGAATCCA | 0.0493
120 | CCAACGAC | -0.211
106 | AGGTAGGG | -0.004
108 | GACCTTGA | 0.099
105 | AAACATCA | 0.108
104 | AGAATTCC | -0.0647
124 | GTACCGTA | -0.0593

The list continues.

Row | Sequence | PBM E-score
126 | CAAACGTA | 0.105
127 | CTCTATCA | -0.0589
128 | GATTGGGC | 0.0756
129 | GGAAAACA | 0.111
130 | ATGTTTTG | 0.0892
131 | CAGTACGG | -0.113
132 | AGGCTACC | -0.25
133 | CGCTATAC | 0.0646
134 | GCTTGCCC | -0.293
135 | GCGTCAGC | -0.183
136 | AAATTGCA | 0.232
137 | GTCTACGA | -0.143
138 | AGTTGTCC | 0.0314
139 | ATTGAGTC | 0.0274
140 | GTCTAACA | -0.216
141 | CGGAACGA | 0.195
142 | GCGCGATA | 0.254
143 | AGGACAAA | 0.169
144 | TGCAGAAA | 0.104
145 | AGTAGGTG | -0.0986
146 | TCGGGACA | 0.0361
147 | CATCTATC | -0.0427
148 | GACCCTGA | 0.389
149 | AAACCGCA | -0.0776
150 | CCCGGTTC | -0.162

Row | Sequence | PBM E-score
151 | CACGTTCA | -0.169
152 | CCGGCTTA | 0.0301
153 | AAACCCGT | -0.00439
154 | CCCTACAG | -0.146
155 | GATTCAGA | 0.157
156 | ACGCTTCA | -0.188
157 | ATCTTCAC | 0.0737
158 | AGCTCCCC | -0.146
159 | ACATATGT | -0.149
160 | ACAGCGGC | -0.183
161 | CGATCTGA | 0.078
162 | ACGGTGTC | -0.125
163 | CTCTCCAG | -0.139
164 | GACCGCTC | -0.187
165 | CCTACACG | -0.213
166 | CCTTGCGC | 0.166
167 | CCAAAGGG | 0.158
168 | ACAGCAGA | 0.0514
169 | GGACATCC | -0.0215
170 | TTAATGAA | 0.123
171 | CTATCAAC | 0.0112
172 | GCTTCCCA | -0.222
